Residue numbers refer to the chain shown, from its start. Names may count otherwise.
Tested on: Aurora-A 122-403 C290A C393A (D274N)
Test: ITC, CEP192 constructs with unphosphorylated Aurora-A kinase domain
Assay type: binding, human
Conditions: for molar ratio: ITC fit, Aurora-A CAKD / M3KD

B1: CEP192 468-533 F490D/F508D/I518D: CEP192 468-533 variant replacing hydrophobic residues recognising two regions of N-lobe (protein)
chain: PQSVVYQNEEGRWVTDLAYYTSDNSKQNLNVSLSDEMNEDDRSGSEAFDLDAQDEEEFNKEHQFIQ
modifications: left off: His6, N-terminal, cleaved | SUMO, N-terminal, cleaved
notes: CEP192 468-533 variant replacing hydrophobic residues recognising two regions of N-lobe
B1 was tested, and the “interaction with Aurora-A CAKD (ITC)” value (ITC, 25 °C, in words) was “completely knocked out the interaction with Aurora-A^CAKD”.

B2: CEP192 468-533: recombinant human CEP192 aa 468–533, minimal binding region (protein)
chain: B1 chain with D23F, D41F, D51I
modifications: left off: His6, N-terminal, cleaved | SUMO, N-terminal, cleaved
B2 showed a molar ratio of 0.85.

B3: CEP192 468-533 Y487A/F490A: CEP192 468-533 mutant, two F-pocket residues replaced with alanine (protein)
chain: B1 chain with Y20A, D23A, D41F, D51I
modifications: left off: His6, N-terminal, cleaved | SUMO, N-terminal, cleaved
notes: CEP192 468-533 mutant, two F-pocket residues replaced with alanine
For B3, the molar ratio was 0.84.
